Test results: PMC4398547

The chains behind the UniProt entries cited, without tags or fusion partners. Where a name states a change or a piece, a line headed by the entry shows the natural chain unless it says otherwise.
UniProt P01871: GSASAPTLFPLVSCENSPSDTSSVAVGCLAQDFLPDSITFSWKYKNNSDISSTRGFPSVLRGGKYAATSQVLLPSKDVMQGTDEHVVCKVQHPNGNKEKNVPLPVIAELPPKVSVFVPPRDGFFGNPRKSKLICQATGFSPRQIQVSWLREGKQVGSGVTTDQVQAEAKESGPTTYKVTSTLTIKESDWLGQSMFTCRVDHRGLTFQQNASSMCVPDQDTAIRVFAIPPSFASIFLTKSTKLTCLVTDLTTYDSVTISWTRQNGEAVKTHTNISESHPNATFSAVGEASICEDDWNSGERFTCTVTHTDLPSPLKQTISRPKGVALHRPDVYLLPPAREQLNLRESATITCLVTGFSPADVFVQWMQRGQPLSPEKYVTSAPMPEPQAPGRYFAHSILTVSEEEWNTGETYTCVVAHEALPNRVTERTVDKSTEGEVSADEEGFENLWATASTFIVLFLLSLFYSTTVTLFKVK

Tests used:
[1] = biological target: membrane-bound immunoglobulin heavy mu chain (mIgM) on Ramos B cells (Homo sapiens) (UniProt P01871); test: flow cytometry on B cells; details: signal resembles baseline noise; PBS with 6.05 mM Mg2+, 1.2 mM Ca2+, 4.5 g/L glucose, 0.2% NaN3; on ice; 200 nM probe, 5 x 10^5 cells, 15 min; pH not stated; protein on the cell surface; label: 5' FITC; single-stranded DNA
[2] = biological target: membrane-bound immunoglobulin heavy mu chain (mIgM) on Ramos B cells (Homo sapiens) (UniProt P01871); test: flow cytometry on Ramos cells; details: 200 nM probe, 15 min on ice, PBS with 6.05 mM Mg2+, 1.2 mM Ca2+, 4.5 g/L glucose, 0.2% NaN3, 5 x 10^5 cells, pH not stated, protein on the cell surface, label: 5' Alexa Fluor 488, 3' BHQ-1, folded or branched DNA

| Sequence | binding result [1] | binding result [2] |
| --- | --- | --- |
| TAGCCAAGGTAACCAGTACAAGGTGCTAAACGTAATGGCTTCGGCTTAC [Random aptamer (LD20t)] | no binding | – |
| AGGAGGAGATTTTTTTTTTAGGAGGATAGTTAGGTGGCTGTTGAGGGTCTCCTCCTA [Q-TD05] | – | binds |

Construct, isoform or probe ends are uncertain for at least one entry. Where cells or extracts were used, other partners may take part. For some assays here: No signal at the amounts used counts as a negative. At least one verdict rests on a figure or table, not on a statement of the authors.
